Results: paper PMC10022686

Amino acid sequences for entries named in this document (tags omitted).
UniProt Q9HD67: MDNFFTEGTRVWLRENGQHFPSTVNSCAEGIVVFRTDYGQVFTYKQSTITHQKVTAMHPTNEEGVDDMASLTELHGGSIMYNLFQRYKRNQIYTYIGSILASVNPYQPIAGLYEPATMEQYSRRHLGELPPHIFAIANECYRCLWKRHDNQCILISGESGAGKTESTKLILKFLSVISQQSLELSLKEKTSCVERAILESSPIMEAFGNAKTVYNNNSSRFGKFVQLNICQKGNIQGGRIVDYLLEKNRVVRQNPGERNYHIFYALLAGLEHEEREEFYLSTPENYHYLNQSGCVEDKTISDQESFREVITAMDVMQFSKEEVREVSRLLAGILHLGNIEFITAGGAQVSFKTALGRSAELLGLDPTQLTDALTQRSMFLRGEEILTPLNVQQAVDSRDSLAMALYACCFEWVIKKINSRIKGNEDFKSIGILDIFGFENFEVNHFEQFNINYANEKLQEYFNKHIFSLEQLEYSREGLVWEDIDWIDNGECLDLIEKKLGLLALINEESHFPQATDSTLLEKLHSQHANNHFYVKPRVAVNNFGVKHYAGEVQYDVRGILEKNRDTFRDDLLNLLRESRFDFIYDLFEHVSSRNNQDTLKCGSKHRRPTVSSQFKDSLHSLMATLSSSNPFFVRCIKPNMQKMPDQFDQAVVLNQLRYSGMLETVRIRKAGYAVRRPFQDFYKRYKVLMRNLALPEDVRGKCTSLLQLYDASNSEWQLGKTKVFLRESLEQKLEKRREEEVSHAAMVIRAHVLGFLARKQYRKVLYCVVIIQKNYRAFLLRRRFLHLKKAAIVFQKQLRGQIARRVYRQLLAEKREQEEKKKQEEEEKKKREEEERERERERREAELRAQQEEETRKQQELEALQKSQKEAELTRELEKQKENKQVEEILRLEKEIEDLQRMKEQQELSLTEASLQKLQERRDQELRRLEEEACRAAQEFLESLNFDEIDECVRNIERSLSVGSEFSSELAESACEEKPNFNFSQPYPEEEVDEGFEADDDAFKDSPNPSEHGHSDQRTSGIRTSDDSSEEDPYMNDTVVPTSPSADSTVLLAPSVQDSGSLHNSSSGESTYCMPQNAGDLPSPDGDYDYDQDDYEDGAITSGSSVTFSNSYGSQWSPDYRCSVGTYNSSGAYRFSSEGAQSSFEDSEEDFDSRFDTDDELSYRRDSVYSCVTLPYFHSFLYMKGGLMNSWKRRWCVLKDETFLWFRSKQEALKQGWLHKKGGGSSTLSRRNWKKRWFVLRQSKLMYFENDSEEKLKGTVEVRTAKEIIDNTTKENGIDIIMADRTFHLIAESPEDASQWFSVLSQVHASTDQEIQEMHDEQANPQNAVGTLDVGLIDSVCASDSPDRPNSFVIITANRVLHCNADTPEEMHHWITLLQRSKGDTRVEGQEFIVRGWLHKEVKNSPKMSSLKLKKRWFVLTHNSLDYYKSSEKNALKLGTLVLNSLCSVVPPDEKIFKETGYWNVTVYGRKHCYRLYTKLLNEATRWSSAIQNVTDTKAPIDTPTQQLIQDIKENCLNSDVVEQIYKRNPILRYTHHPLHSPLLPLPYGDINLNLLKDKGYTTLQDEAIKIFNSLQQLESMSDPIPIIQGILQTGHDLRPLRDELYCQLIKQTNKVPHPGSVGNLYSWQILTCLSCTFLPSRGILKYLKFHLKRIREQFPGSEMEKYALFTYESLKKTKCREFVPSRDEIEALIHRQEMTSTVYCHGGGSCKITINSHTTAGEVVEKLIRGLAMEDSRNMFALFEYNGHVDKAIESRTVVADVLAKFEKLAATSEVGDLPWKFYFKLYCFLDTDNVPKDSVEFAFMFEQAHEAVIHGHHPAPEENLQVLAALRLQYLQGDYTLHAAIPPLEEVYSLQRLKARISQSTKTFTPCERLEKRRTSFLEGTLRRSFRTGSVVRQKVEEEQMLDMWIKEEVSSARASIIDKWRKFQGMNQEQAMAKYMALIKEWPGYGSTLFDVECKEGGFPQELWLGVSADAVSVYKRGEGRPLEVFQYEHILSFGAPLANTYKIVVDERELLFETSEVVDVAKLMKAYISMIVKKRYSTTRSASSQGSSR
UniProt Q70E73: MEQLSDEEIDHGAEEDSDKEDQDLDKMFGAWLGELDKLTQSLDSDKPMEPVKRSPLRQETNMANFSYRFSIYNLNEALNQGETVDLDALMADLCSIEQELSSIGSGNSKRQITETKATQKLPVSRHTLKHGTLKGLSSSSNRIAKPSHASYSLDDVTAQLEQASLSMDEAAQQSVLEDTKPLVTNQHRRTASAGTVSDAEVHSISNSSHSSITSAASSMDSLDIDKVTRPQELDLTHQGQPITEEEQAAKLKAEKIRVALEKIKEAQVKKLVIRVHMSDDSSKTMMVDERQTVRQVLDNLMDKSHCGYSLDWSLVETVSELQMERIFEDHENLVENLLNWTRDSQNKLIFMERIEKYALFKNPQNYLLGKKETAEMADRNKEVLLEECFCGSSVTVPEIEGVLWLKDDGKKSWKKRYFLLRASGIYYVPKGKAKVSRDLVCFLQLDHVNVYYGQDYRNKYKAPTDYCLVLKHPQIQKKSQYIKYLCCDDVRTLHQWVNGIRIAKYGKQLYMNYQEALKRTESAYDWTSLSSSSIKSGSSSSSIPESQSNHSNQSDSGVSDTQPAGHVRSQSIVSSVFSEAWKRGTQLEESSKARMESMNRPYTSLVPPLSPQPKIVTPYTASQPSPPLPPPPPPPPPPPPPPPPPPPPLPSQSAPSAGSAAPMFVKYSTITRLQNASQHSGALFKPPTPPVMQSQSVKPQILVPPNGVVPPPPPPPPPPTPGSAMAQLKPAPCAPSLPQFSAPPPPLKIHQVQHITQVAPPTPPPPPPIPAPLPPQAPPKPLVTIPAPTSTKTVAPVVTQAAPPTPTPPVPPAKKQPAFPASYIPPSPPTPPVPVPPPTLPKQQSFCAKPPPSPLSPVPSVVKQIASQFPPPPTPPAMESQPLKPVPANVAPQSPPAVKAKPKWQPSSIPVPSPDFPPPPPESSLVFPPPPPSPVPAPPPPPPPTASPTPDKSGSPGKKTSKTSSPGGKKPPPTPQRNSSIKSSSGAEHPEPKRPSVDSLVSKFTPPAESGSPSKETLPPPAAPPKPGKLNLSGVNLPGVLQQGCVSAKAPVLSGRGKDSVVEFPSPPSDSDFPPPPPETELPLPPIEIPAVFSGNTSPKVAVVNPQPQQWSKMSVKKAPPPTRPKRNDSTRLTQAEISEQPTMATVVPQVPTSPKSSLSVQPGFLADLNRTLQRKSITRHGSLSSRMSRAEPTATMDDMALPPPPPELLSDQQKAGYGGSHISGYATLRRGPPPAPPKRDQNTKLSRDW

B1: RASAL2, endogenous in U2-OS cells (protein, UniProt Q9UJF2 1-1139)
chain: MQTPEVPAERSPRRRSISGTSTSEKPNSMDTANTSPFKVPGFFSKRLKGSIKRTKSQSKLDRNTSFRLPSLRSTDDRSRGLPKLKESRSHESLLSPCSTVECLDLGRGEPVSVKPLHSSILGQDFCFEVTYLSGSKCFSCNSASERDKWMENLRRTVQPNKDNCRRAENVLRLWIIEAKDLAPKKKYFCELCLDDTLFARTTSKTKADNIFWGEHFEFFSLPPLHSITVHIYKDVEKKKKKDKNNYVGLVNIPTASVTGRQFVEKWYPVSTPTPNKGKTGGPSIRIKSRFQTITILPMEQYKEFAEFVTSNYTMLCSVLEPVISVRNKEELACALVHILQSTGRAKDFLTDLVMSEVDRCGEHDVLIFRENTIATKSIEEYLKLVGQQYLHDALGEFIKALYESDENCEVDPSKCSSSELIDHQSNLKMCCELAFCKIINSYCVFPRELKEVFASWKQQCLNRGKQDISERLISASLFLRFLCPAIMSPSLFNLMQEYPDDRTSRTLTLIAKVIQNLANFAKFGNKEEYMAFMNDFLEHEWGGMKRFLLEISNPDTISNTPGFDGYIDLGRELSVLHSLLWEVVSQLDKGENSFLQATVAKLGPLPRVLADITKSLTNPTPIQQQLRRFTEHNSSPNVSGSLSSGLQKIFEDPTDSDLHKLKSPSQDNTDSYFRGKTLLLVQQASSQSMTYSEKDERESSLPNGRSVSLMDLQDTHAAQVEHASVMLDVPIRLTGSQLSITQVASIKQLRETQSTPQSAPQVRRPLHPALNQPGGLQPLSFQNPVYHLNNPIPAMPKASIDSSLENLSTASSRSQSNSEDFKLSGPSNSSMEDFTKRSTQSEDFSRRHTVPDRHIPLALPRQNSTGQAQIRKVDQGGLGARAKAPPSLPHSASLRSTGSMSVVSAALVAEPVQNGSRSRQQSSSSRESPVPKVRAIQRQQTQQVQSPVDSATMSPVERTAAWVLNNGQYEEDVEETEQNLDEAKHAEKYEQEITKLKERLRVSSRRLEEYERRLLVQEQQMQKLLLEYKARLEDSEERLRRQQEEKDSQMKSIISRLMAVEEELKKDHAEMQAVIDAKQKIIDAQEKRIVSLDSANTRLMSALTQVKERYSMQVRNGISPTNPTKLSITENGEFKNSSC
B2: ARHGDIA, endogenous in U2-OS cells (protein, UniProt P52565 1-204)
chain: MAEQEPTAEQLAQIAAENEEDEHSVNYKPPAQKSIQEIQELDKDDESLRKYKEALLGRVAVSADPNVPNVVVTGLTLVCSSAPGPLELDLTGDLESFKKQSFVLKEGVEYRIKISFRVNREIVSGMKYIQHTYRKGVKIDKTDYMVGSYGPRAEEYEFLTPVEEAPKGMLARGSYSIKSRFTDDDKTDHLSWEWNLTIKKDWKD

Columns and labels:
[1] = molecular target: GFP–MYO10–BioID (human) (UniProt Q9HD67); assay: proximity labelling; U2-OS cells stably expressing GFP–MYO10–BioID or GFP–MYO10, on fibronectin, 50 μM biotin for 24 h; biotinylated proteins purified on streptavidin beads; mass spectrometry and western blotting
[2] = molecular target: GFP–MYO10^FERM (MyTH4/FERM domain of myosin-X) (UniProt Q9HD67); assay: affinity purification with mass spectrometry; GFP pulldowns in U2-OS cells stably expressing GFP, GFP–MYO10^FERM or GFP–TLN1^FERM; two biological replicates combined; hits enriched at least twofold over GFP and over TLN1^FERM
[3] = molecular target: GFP–MYO10^FERM (MyTH4/FERM domain of myosin-X) (UniProt Q9HD67); assay: as above; remark: listed apart in the source

Row | binding [1] | binding [2] | binding [3] | Molecule
1 | binds | binds |  | lamellipodin (RAPH1), endogenous in U2-OS cells (from UniProt Q70E73 1-1250)
2 |  |  | binds | B1
3 |  |  | binds | B2

Like-named read-outs stand apart in the source and are kept apart here. These are yes or no findings as the source states them, for the method shown. In cells and extracts the contact can be indirect. A yes stands for co-enrichment or nearness to the bait. Other partners may have been found.
